In the supplement of paper PMC4635364:
Structures can show the parent of a compound that is named as a salt. Some of the results follow. Repeats in this data set agree poorly, so a single value says little.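 Cells: ReNCell VM human fetal ventral-midbrain neural progenitors, differentiated mitogen-free. Blinded raters compared doublecortin-stained (early neurons) or tyrosine hydroxylase-stained (dopaminergic neurons) images with untreated wells, where 0 means no change. After repeats and both raters were averaged, compounds scoring 2 or above became hits for retesting.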

Each molecule was assayed on ReNCell VM (assay: neuronal differentiation score (DCX+ cell fraction vs untreated, manual image score) (score (-3 to 3)); higher = more neuronal differentiation). Conditions: library: LOPAC; 2 uM; 2 weeks.

Neuronal differentiation score, inactive:
CN1[C@@H]2CC[C@H]1C[C@@H](OC(c1ccccc1)c1ccccc1)C2 [Benztropine mesylate] 0
O=C(CCNNC(=O)c1ccncc1)NCc1ccccc1 [Nialamide] 1
COc1cc2nc(N3CCN(C(=O)C4COc5ccccc5O4)CC3)nc(N)c2cc1OC (configuration not stated) [Doxazosin mesylate] 0
CCN(CC)CCCC(C)Nc1ccnc2cc(Cl)ccc12 (configuration not stated) [Chloroquine diphosphate] 0
O=[N+]([O-])c1cc2nc(O)c(O)nc2cc1[N+](=O)[O-] 0
CCOC(=O)[C@]12CC1/C(=N\O)c1ccccc1O2 (some centres not stated) 0
CC(C)(Sc1ccc(CCN(CCCCC2CCCCC2)C(=O)NC2CCCCC2)cc1)C(=O)O 0
Clc1ccccc1C(c1ccccc1)(c1ccccc1)n1ccnc1 [Clotrimazole] -1
COc1cc2c(cc1OC)-c1c/c(=N\c3c(C)cc(C)cc3C)n(C)c(=O)n1CC2 [Trequinsin hydrochloride] 0
O=C(/C=C/c1ccc(O)c(O)c1)OCCc1ccccc1 [Caffeic acid phenethyl ester] 0
CN1CCN(CC(=O)N2c3ccccc3C(=O)Nc3cccnc32)CC1 [Pirenzepine dihydrochloride] 0
NS(=O)(=O)c1cc(C(=O)O)c(NCc2ccco2)cc1Cl [Furosemide] 0
Cc1ccccc1N1C(=O)c2cc(S(N)(=O)=O)c(Cl)cc2NC1C (configuration not stated) [Metolazone] 0
CNC1(C)C2CCC(C2)C1(C)C (configuration not stated) [Mecamylamine hydrochloride] 0
Clc1ccc2c(c1)C(N1CCNCC1)=Nc1ccccc1O2 [Amoxapine] 0
Cc1ccc(O)c(N=Nc2ccccc2)n1 0
C[C@]12C=CC(=O)C=C1CC[C@H]1[C@@H]3C[C@@H](O)[C@](O)(C(=O)CO)[C@@]3(C)C[C@H](O)[C@@]12F [Triamcinolone] 0
CC#CCOC(=O)c1c(C)nc2sc3c(c2c1N)CCC(O)C3 (configuration not stated) 0
C#CCN(C)CCCOc1ccc(Cl)cc1Cl [Clorgyline hydrochloride] 0
NNc1nncc2ccccc12 [Hydralazine hydrochloride] 0
CCOC(=O)[N-]c1c[n+](N2CCOCC2)no1 [Molsidomine] 0
Cc1cccc(C)c1NC(=O)C(C)N (configuration not stated) [Tocainide hydrochloride] 0
CN1CCN(CCCN2c3ccccc3Sc3ccc(C(F)(F)F)cc32)CC1 [Trifluoperazine dihydrochloride] 0
CNCCCC1c2ccccc2C=Cc2ccccc21 [Protriptyline hydrochloride] 1
NCCc1c[nH]cn1 [Histamine dihydrochloride] 0
CC(C)NCC(O)c1ccc(O)c(O)c1 (single isomer, unassigned; (-)) [(-)-Isoproterenol hydrochloride] 1
CCc1cccc2c3c([nH]c12)C(CC)(CC(=O)O)OCC3 (configuration not stated) [Etodolac] 0
Nc1nc(N)c2nc(-c3ccccc3)c(N)nc2n1 [Triamterene] 0
C[N+](C)(C)CCCCCNCC12CC3CC(CC(C3)C1)C2 0
Brc1c(NC2=NCCN2)ccc2nccnc12 0
Nc1nnc(-c2cccc(Cl)c2Cl)c(N)n1 [Lamotrigine] 0
CC[N+](C)(C)c1cccc(O)c1 [Edrophonium chloride] 0

Same assay, conditions: library: Prestwick; 2 uM; 2 weeks

Neuronal differentiation score, inactive:
CN1[C@@H]2CC[C@H]1C[C@@H](OC(c1ccccc1)c1ccccc1)C2 [Benztropine mesylate] 0
O=C(CCNNC(=O)c1ccncc1)NCc1ccccc1 [Nialamide] 0
COc1cc2nc(N3CCN(C(=O)C4COc5ccccc5O4)CC3)nc(N)c2cc1OC (configuration not stated) [Doxazosin mesylate] 0
CCN(CC)CCCC(C)Nc1ccnc2cc(Cl)ccc12 (configuration not stated) [Chloroquine diphosphate] 0
NC(=O)c1cccnc1 [Nicotinamide] 0
Clc1ccccc1C(c1ccccc1)(c1ccccc1)n1ccnc1 [Clotrimazole] 0
COc1ccccc1OCCNCC(O)COc1cccc2[nH]c3ccccc3c12 (configuration not stated) [Carvedilol] 0
Cc1ccc2c(c1)c1c3n2CCNC3CCC1 (configuration not stated) [Pirlindole mesylate] 0
CN1CCN(CC(=O)N2c3ccccc3C(=O)Nc3cccnc32)CC1 [Pirenzepine dihydrochloride] 0
NS(=O)(=O)c1cc(C(=O)O)c(NCc2ccco2)cc1Cl [Furosemide] 0
Cn1c(=O)c2[nH]cnc2n(C)c1=O [Aminophylline] 0
O=C1CCC(N2C(=O)c3ccccc3C2=O)C(=O)N1 (configuration not stated) [Thalidomide] 0
Cc1ccccc1N1C(=O)c2cc(S(N)(=O)=O)c(Cl)cc2NC1C (configuration not stated) [Metolazone] 0
CNC1(C)C2CCC(C2)C1(C)C (configuration not stated) [Mecamylamine hydrochloride] 0
Clc1ccc2c(c1)C(N1CCNCC1)=Nc1ccccc1O2 [Amoxapine] 0
C[C@]12C=CC(=O)C=C1CC[C@H]1[C@@H]3C[C@@H](O)[C@](O)(C(=O)CO)[C@@]3(C)C[C@H](O)[C@@]12F [Triamcinolone] 0
C#CCN(C)CCCOc1ccc(Cl)cc1Cl [Clorgyline hydrochloride] 0
NNc1nncc2ccccc12 [Hydralazine hydrochloride] 0
CCC(=O)O[C@]1(C(=O)SCF)[C@H](C)C[C@H]2[C@@H]3C[C@H](F)C4=CC(=O)C=C[C@]4(C)[C@@]3(F)[C@@H](O)C[C@@]21C [Fluticasone propionate] 0
CCOC(=O)[N-]c1c[n+](N2CCOCC2)no1 [Molsidomine] 0
Nc1nc(N)nc(-c2cc(Cl)ccc2Cl)n1 [Irsogladine maleate] 0
Cc1cccc(C)c1NC(=O)C(C)N (configuration not stated) [Tocainide hydrochloride] 0
CN1CCN(CCCN2c3ccccc3Sc3ccc(C(F)(F)F)cc32)CC1 [Trifluoperazine dihydrochloride] 0
CNCCCC1c2ccccc2C=Cc2ccccc21 [Protriptyline hydrochloride] 0
CC(C)NCC(O)c1ccc(O)c(O)c1 (single isomer, unassigned; (-)) [(-)-Isoproterenol hydrochloride] 1
CCc1cccc2c3c([nH]c12)C(CC)(CC(=O)O)OCC3 (configuration not stated) [Etodolac] 0
Nc1nc(N)c2nc(-c3ccccc3)c(N)nc2n1 [Triamterene] 0
CCC1=C(C)CN(C(=O)NCCc2ccc(S(=O)(=O)NC(=O)N[C@H]3CC[C@H](C)CC3)cc2)C1=O [Glimepiride] 0
Nc1nnc(-c2cccc(Cl)c2Cl)c(N)n1 [Lamotrigine] 0
CC[N+](C)(C)c1cccc(O)c1 [Edrophonium chloride] 0
